In patent publication US20180030144A1:
Where a chain is given by its changes, count along the chain named. These are yes or no findings as the source states them, for the method shown. A result given as binding can be weak or reduced; the word gives no strength.

Columns and labels:
[1] = target: human CD73 expressed at the cell surface (human); test: flow cytometry titration on a human-CD73-expressing recombinant host cell line, median of fluorescence
[2] = target: cynomolgus CD73 expressed on a recombinant host cell line (cynomolgus); test: flow cytometry titration on a cynomolgus-CD73-expressing recombinant host cell line, median of fluorescence
[3] = target: human CD73 expressed at the cell surface (human); test: flow cytometry titration on MDA-MB-231 cells
[4] = target: human CD73 expressed at the cell surface (human); test: flow cytometry titration on MDA-MB-231 cells (endogenous CD73), median of fluorescence
[5] = target: human CD73 expressed at the cell surface (human); test: flow cytometry on MDA-MB-231 cells, with or without 200 µM APCP
[6] = target: human CD73 expressed at the cell surface (human); test: flow cytometry on MDA-MB-231 cells, with or without APCP (Example 4)
[7] = target: cynomolgus CD73 expressed on a recombinant host cell line (cynomolgus); test: flow cytometry titration on cynomolgus CD73-expressing recombinant host cells
[8] = target: human CD73 expressed at the cell surface (human); test: flow cytometry titration on human CD73-expressing recombinant host cells
[9] = target: human CD73 expressed at the cell surface (human); test: flow cytometry titration on cells expressing wild type human CD73
[10] = target: human CD73 expressed at the cell surface (human); test: flow cytometry titration on HEK293T cells transfected with wild type human CD73, mean of fluorescence

Measured: binding

B1: antibody 6E1 (antibody, human IgG1, V domains shown)
VH: EFQLQQSGPELVKPGASVKVSCKASGYAFTSYNMYWVKQSHGKRLEWIGYIDPYNGGSSYNQKFKGKATLTVDKSSSTAYMHLNNLTSEDSAVYYCARGYNNYKAWFAYWGQGTLVTVSA
VL: SIVMTQTPKFLLVSAGDRVTITCKASQSVTNDVAWYQQKPGQSPKLLIYYASNRYTGVPDRFTGSGYGTDFTFTISTMQAEDLAVYFCQQDYSSLTFGAGTKLELK
binds: [1] | [2] | [3] | [4] | [5] | [6] | [7] | [8]

B2: antibody 8C7 (antibody, human IgG1, V domains shown)
VH: B1 VH with F2V, T30A, Y35N, R44S, E46D, Q62L, K63T, S77T, N85S, N101G
VL: SIVMTPTPKFLLVSAGDRVTITCKASQSVSNDVAWYQQKPGQSPKLLIYYASTRYTGVPDRFTGSGYGTDFTFTISTVQAEDLAVYFCQQDYSSLTFGAGTKLELKR
binds: [1] | [2] | [3] | [4] | [5] | [6] | [7] | [8]

B3: antibody 3C12 (antibody, human IgG1, V domains shown)
VH: QIQLQQSGPELVKPGASVKVSCKASGYAFASYNMNWVKQSHGKSLDWIGYIDPYNGGSSYNLTFKGKATLTVDKSSTTAYMHLNSLTSEDSAVYYCARGYGNYKAWFAYWGQGTLVTVSA
VL: B2 VL with S1D, I2V, P6Q
binds: [1] | [2] | [9] | [10] | [3] | [4] | [5] | [6] | [7] | [8]

B4: antibody 11E1 (antibody, human IgG1, V domains shown)
VH: B1 VH with F2I, R44S, S58T, N85S, N101G
VL: B1 VL with S1D, I2A, M78V
binds: [1] | [2] | [3] | [4] | [5] | [6] | [7] | [8]
